This is an account of results in PMC11324527, “Cryo-EM architecture of a near-native stretch-sensitive membrane microdomain” (Nature, 2024).

By UniProt entry, the sequences of proteins in these tests, tags left out.
UniProt P47041: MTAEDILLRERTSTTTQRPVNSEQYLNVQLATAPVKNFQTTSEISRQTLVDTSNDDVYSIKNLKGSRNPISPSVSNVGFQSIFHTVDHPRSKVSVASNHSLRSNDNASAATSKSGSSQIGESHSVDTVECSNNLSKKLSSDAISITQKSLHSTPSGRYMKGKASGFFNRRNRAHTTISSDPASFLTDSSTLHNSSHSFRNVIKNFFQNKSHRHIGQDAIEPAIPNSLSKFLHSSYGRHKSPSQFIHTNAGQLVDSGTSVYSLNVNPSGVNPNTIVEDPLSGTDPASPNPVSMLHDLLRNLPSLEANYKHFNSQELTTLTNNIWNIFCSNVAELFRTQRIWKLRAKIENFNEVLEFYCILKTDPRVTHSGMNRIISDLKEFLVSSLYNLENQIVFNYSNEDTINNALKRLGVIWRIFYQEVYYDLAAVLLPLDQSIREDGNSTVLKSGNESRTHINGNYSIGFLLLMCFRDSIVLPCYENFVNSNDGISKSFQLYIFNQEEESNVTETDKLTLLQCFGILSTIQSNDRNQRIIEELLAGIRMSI

For the assay, the target named is Bit61-TAP (S. cerevisiae (endogenous in yeast)) (UniProt P47041). Put plainly: affinity purification with mass spectrometry; eluate of the Bit61-TAP purification (about 0.5 ug) separated by SDS-PAGE, in-gel digest, LC-MS/MS, MaxQuant.

No constants are given. Whether binding was seen depends on the method and setting. Binding seen in cells or lysates may run through a third protein. Here binding means that the protein was enriched with, or labelled near, the bait; the list need not be complete. A no says only that the protein was not detected with the bait.

B1: Lsp1 (native-source eisosome) (protein, UniProt Q12230 1-341)
chain: MHRTYSLRNQRAPTAAELQAPPPPPSSTKSKFFGKASIASSFRKNAAGNFGPELARKLSQLVKTEKGVLRAMEVVASERREAAKQLSLWGADNDDDVSDVTDKLGVLIYELGELQDQFIDKYDQYRVTLKSIRNIEASVQPSRDRKEKITDEIAHLKYKDPQSTKIPVLEQELVRAEAESLVAEAQLSNITREKLKAAYSYMFDSLRELSEKFALIAGYGKALLELLDDSPVTPGEARPAYDGYEASRQIIMDAESALESWTLDMAAVKPTLSFHQTVDDVYEDEDGEEEEEPEIQNGDIPGQVVEEEEVEWTTEVPVDDEAHEADHHVSQNGHTSGSENI
Consider B1, for which the binding entry is “no binding”.

B2: Pil1 (native-source eisosome) (natural protein, S. cerevisiae (endogenous in yeast), UniProt P53252 1-339, looked up)
chain: MHRTYSLRNSRAPTASQLQNPPPPPSTTKGRFFGKGGLAYSFRRSAAGAFGPELSRKLSQLVKIEKNVLRSMELTANERRDAAKQLSIWGLENDDDVSDITDKLGVLIYEVSELDDQFIDRYDQYRLTLKSIRDIEGSVQPSRDRKDKITDKIAYLKYKDPQSPKIEVLEQELVRAEAESLVAEAQLSNITRSKLRAAFNYQFDSIIEHSEKIALIAGYGKALLELLDDSPVTPGETRPAYDGYEASKQIIIDAESALNEWTLDSAQVKPTLSFKQDYEDFEPEEGEEEEEEDGQGRWSEDEQEDGQIEEPEQEEEGAVEEHEQVGHQQSESLPQQTTA
notes: Pil1, BAR-domain eisosome protein of S. cerevisiae; model built up to residue 274 (C-terminal region from residue 275 removed, no density); Stands in the tubules as dimers in a helical lattice; also called Pil1/Lsp1; PIL1_YEAST; source: endogenous, untagged, S. cerevisiae
As to B2, the binding entry is given as “no binding”.
